PubChem BioAssay AID602346 (Broad Institute, 2012)
The whole screen tested about 340,000 compounds, of which about 1,200 (0.35%) were called active. This list was built around the results that the source calls inconclusive (neither active nor inactive); the mix of calls is not that of the screen. No stated cut-off is given here; in the data, active means inhibition above about 50% (passing the limit was not always enough); inconclusive means no clear call, values can overlap the other calls; inactive means below about 31%.

Assay: blockers of Vif multimerization in cells – imaging, HEK293T, single point, primary screen (AID 602346)
Details: Vif self-association by quenched fluorescence, 24 h, at 7.49 µM, hits give high values
With `Cc1ccc(/C=C2/CNC/C(=C/c3ccc(C)cc3)C2=O)cc1` the inhibition was active: 120%. With `Nc1nccc(SCc2ccc(Cl)cc2Cl)n1` the inhibition was inactive: -2.97%. With `Cc1c(C=Nc2ccc(S(=O)(=O)N(C)C)cc2)c(O)[nH]c(=O)c1C#N` the inhibition was inconclusive: 30%. For `Clc1ccccc1OCCN1CCCCC1`, the inhibition was inconclusive: 36.6%. For `C=CCc1ccc(O)c(-c2ccc(O)c(CC=C)c2)c1`, the inhibition was inconclusive: 21.9%. For `O=C(NCc1cccc(C(F)(F)F)c1)c1cccc2c1C(=O)c1ccc(N3CCC(Cc4ccccc4)CC3)cc1S2(=O)=O`, the inhibition was active: 122%. In the case of `O=C(Nc1ccnn1C1CCN(C(=O)c2ccccc2C(F)(F)F)CC1)C1CC1`, the inhibition is reported as inconclusive: 25.6%. In the case of `Cc1ccc(S(=O)(=O)N(CC(=O)N2CCC(C)CC2)Cc2ccccc2F)cc1`, the inhibition is reported as inactive: -12.7%. For `Cc1noc(C)c1-c1ccc(C(=O)Nc2cccc(NS(C)(=O)=O)c2)c2occc12`, the inhibition was inactive: -10.9%. For `Cc1cc(N2CCCCCC2)nc(-c2ccccc2O)n1`, the inhibition was inconclusive: 31.7%. With `COc1ccccc1CNC(=O)CSC1=NCCS1` the inhibition was active: 58.3%. For `c1ccc(-n2cnc3cc(NCc4ccco4)ccc32)cc1`, the inhibition was inactive: 1.5%. In the case of `COCOc1cccc(CN2CCC(C)(Oc3cccc(C#N)c3)C2)c1` (configuration not stated), the inhibition is reported as inconclusive: 44.4%. In the case of `COc1ccc(CCn2c(=N)c(S(=O)(=O)c3ccc(Cl)cc3)cc3c(=O)n4ccccc4nc32)cc1`, the inhibition is reported as inconclusive: 44.3%. In the case of `COc1cc(OC)cc(C(=O)N2CC(=O)Nc3ccccc32)c1`, the inhibition is reported as inactive: -12%. In the case of `CCn1c2ccccc2c2cc(CN3CCN(C(=O)c4ccco4)CC3)ccc21`, the inhibition is reported as inconclusive: 14.2%. For `COC(=O)c1ccc(Oc2coc3cc(OCc4cnn(-c5ccccc5)c4)ccc3c2=O)cc1`, the inhibition was active: 142%. With `O=C(NCCCN1CCN(c2ccccc2F)CC1)Nc1ccc(F)cc1` the inhibition was inactive: -4.35%. For `CCC(=O)N1c2ccccc2-c2nnc(SC)nc2OC1c1ccc(N(C)C)cc1` (configuration not stated), the inhibition was inconclusive: 38.2%. In the case of `Cc1ccc(C)c(N2CCN(C(=O)CCc3nc(-c4ccccc4C(F)(F)F)no3)CC2)c1`, the inhibition is reported as inactive: -12%. In the case of `CCC(=O)Nc1ccc(NC(=S)NC(=O)/C=C/c2ccco2)cc1`, the inhibition is reported as inconclusive: 45.4%. With `CC(C)CC(=O)NC(C)C(c1cccs1)N1CCOCC1` (configuration not stated) the inhibition was inactive: 6.8%. In the case of `O=C(Nc1ccc(F)cc1)c1nc[nH]c1C(=O)O`, the inhibition is reported as inactive: 11.6%. With `Nc1c(C(=O)c2ccccc2)sc2nsc(SCCN3CCOCC3)c12` the inhibition was inactive: 0.165%. With `CC(=O)N(CN1C(=O)C2CC=CCC2C1=O)c1cccc(Cl)c1` (configuration not stated) the inhibition was inconclusive: 35.3%. For `CCOC(=O)c1cc(-c2ccccc2)sc1NC(=S)Nc1cc(C)ccn1`, the inhibition was active: 169%. In the case of `Nc1ncnc2c1ncn2C1OC(C(=O)NC2CC2)C(O)C1O` (configuration not stated), the inhibition is reported as active: 160%. In the case of `NC(=O)c1cc([N+](=O)[O-])ccc1NCc1ccc(O)cc1`, the inhibition is reported as inconclusive: 31.8%. With `Cc1ccc(S(=O)(=O)/N=C(/Nc2cccc(C(=O)O)c2)c2ccccc2)cc1` the inhibition was inconclusive: 40.3%. In the case of `O=C(COC(=O)c1cc(=O)[nH]c2ccccc12)Nc1ccc(F)cc1F`, the inhibition is reported as inconclusive: 26%. In the case of `Cn1c(=O)c2c(nc(CN3CCN(c4ccccc4)CC3)n2CCc2ccccc2)n(C)c1=O`, the inhibition is reported as inconclusive: 45.4%. For `Cc1ccc(SCc2cn3ccccc3n2)cc1`, the inhibition was inconclusive: 33.6%. With `O=C(NCCCN1CCC(Cc2ccccc2)CC1)c1ccc(CS(=O)c2ccccc2Cl)o1` (configuration not stated) the inhibition was inconclusive: 39.7%. In the case of `Cc1ccc(-c2nnc(Cc3ccc([N+](=O)[O-])cc3)o2)cc1`, the inhibition is reported as inconclusive: 34%. With `CC(=O)c1ccc2c(c1)OCCOCCOCCOCCO2` the inhibition was inconclusive: 9.1%. In the case of `O=c1c(-c2nc3ccccc3s2)cccn1Cc1ccccc1`, the inhibition is reported as inactive: -27.7%. In the case of `CC(=O)c1cccc(NC(=S)NC(=O)C(C)C)c1`, the inhibition is reported as active: 86.5%. In the case of `COc1ccc(-n2c(=O)c3ccccc3c3ccccc3c2=O)c(OC)c1`, the inhibition is reported as inactive: 5.58%. With `O=C(CSc1ccsc1[N+](=O)[O-])NCc1ccco1` the inhibition was inactive: 5.15%. In the case of `COCc1ccc(CN2CCC(n3nccc3NC(=O)c3ccc4c(c3)OCO4)CC2)o1`, the inhibition is reported as inconclusive: 38.2%. In the case of `O=C(/C=C/c1ccc(Cl)c(C(F)(F)F)c1)N1CCN(c2ccccn2)CC1`, the inhibition is reported as inconclusive: 32.6%. In the case of `Cn1c2ccccc2c(=O)c2ccc(NCCc3cccs3)cc21`, the inhibition is reported as inactive: 17.8%. For `COc1ccc(NC(=O)C2CCN(S(=O)(=O)c3ccc4c(c3)NC(=O)CO4)CC2)cc1`, the inhibition was inactive: 2.45%. For `CC(=O)c1cc(C)ccc1OC(=O)c1cccnc1`, the inhibition was inconclusive: 34.3%. With `Nc1ccc(-c2ccc(N)c([N+](=O)[O-])c2)cc1[N+](=O)[O-]` the inhibition was inconclusive: 34.1%. In the case of `Nc1cccn2c(-c3ccc(Cl)c(Cl)c3)cnc12`, the inhibition is reported as inactive: -2.63%. With `CCc1cccc(CC)c1NC(=O)CN1CC(C)SC1=NC1CCCCC1` (configuration not stated) the inhibition was inconclusive: 8.11%. In the case of `COc1ccc(C)cc1NC(=O)C1CCN(C(=O)c2ccco2)CC1`, the inhibition is reported as active: 53.9%. For `COc1cccc(OCC(O)CN2CCN(CCO)CC2)c1` (configuration not stated), the inhibition was inconclusive: 46%. For `CN(C)S(=O)(=O)N1CCCN(S(=O)(=O)N(C)C)CC1`, the inhibition was active: 66.3%. For `O=C(C#Cc1ccccc1)c1ccc([N+](=O)[O-])cc1`, the inhibition was inconclusive: 49.7%. In the case of `Nc1cc(=O)[nH]c(SCC(=O)c2ccc(F)cc2)n1`, the inhibition is reported as inconclusive: 46.4%. For `COCC(CN1CCN(C2=NS(=O)(=O)c3ccccc32)CC1)OC(=O)c1ccccc1` (configuration not stated), the inhibition was inactive: -6.66%. In the case of `Cc1ccc(-c2noc(CCC(=O)Nc3cc(C)ccn3)n2)cc1`, the inhibition is reported as inactive: 7.06%. For `CCN(C[C@H]1N[C@@](Cc2ccccc2)(C(=O)OC)[C@H]2C(=O)N(C)C(=O)[C@@H]12)C(=O)COc1ccccc1`, the inhibition was inconclusive: 34.5%. For `CCc1cc(=O)[nH]c(SCCc2ccccc2)n1`, the inhibition was inactive: 13.5%. With `CCOC(=O)C1CCN(S(=O)(=O)c2cccc(-c3cn4cc(C)ccc4n3)c2)CC1` the inhibition was active: 63.7%. In the case of `N#Cc1cc2c(nc1SCC(=O)N1CCOCC1)CCCCC2`, the inhibition is reported as inactive: 1.21%. With `CCOc1ccc2c(C)c(C(=O)O)oc2c1OCC` the inhibition was active: 54.5%. For `CCOC(=O)C1CCN(C(=O)c2ccc3c(=O)n4nc(Nc5cc(C)ccc5C)sc4nc3c2)CC1`, the inhibition was inactive: -4.05%. With `O=C(NCc1ccco1)C1CCN(S(=O)(=O)c2ccccc2C(F)(F)F)CC1` the inhibition was inactive: 5.15%. In the case of `CC(=O)N1CCN(C(C)=O)C1c1ccccc1`, the inhibition is reported as inconclusive: 48.6%. With `Nc1nnc(-c2cccnc2)s1` the inhibition was inconclusive: 37.7%. With `COc1ccc(OC)c(NC(=O)COc2ccc(S(=O)(=O)N3CCCC3)cc2)c1` the inhibition was inconclusive: 26.9%. In the case of `COc1ccc(S(=O)(=O)N(C)c2ccc(C(=O)NCC3CCCO3)cc2)cc1OC` (configuration not stated), the inhibition is reported as inactive: -0.325%. With `Cn1nc(C(F)(F)F)c(/C=N/OC(=O)c2ccccc2Cl)c1SCc1ccccc1Cl` the inhibition was inactive: 5.23%. For `O=C(CCS(=O)(=O)c1ccc(Br)cc1)NC1CCCCCC1`, the inhibition was inactive: 3.6%. In the case of `COc1ccc(/C=N/NC(=O)COc2ccccc2-c2ccccc2)cc1`, the inhibition is reported as inconclusive: 34%. In the case of `COc1ccc(C(=O)N/N=C/c2ccccc2OC(=O)c2ccccc2)cc1`, the inhibition is reported as inconclusive: 46.2%. For `O=C(CSc1ccc(C(F)(F)F)cc1[N+](=O)[O-])NCCOc1ccccc1`, the inhibition was inconclusive: 7.83%. With `COc1ccc(-n2c(SCC(=O)NC3CC3)nc3ccccc3c2=O)cc1OC` the inhibition was inconclusive: 36.4%. In the case of `O=C(COC(=O)[C@H](Cc1ccccc1)NC(=O)c1cccs1)Nc1c(Cl)cccc1Cl`, the inhibition is reported as inactive: -2.05%. With `CCOc1nnc(C)c2c(C)n(-c3cccc(OC)c3)nc12` the inhibition was inconclusive: 14.6%. With `CCNC(=S)N1CCN(CCN2C(=O)c3cccc4cccc(c34)C2=O)CC1` the inhibition was inconclusive: 41.5%. In the case of `CCS(=O)(=O)c1c([N+](=O)[O-])ncn1C`, the inhibition is reported as inconclusive: 47.6%. In the case of `Cc1cccc(C(=O)NNC(=O)c2cccc([N+](=O)[O-])c2)c1`, the inhibition is reported as inconclusive: 30.3%. With `N#CC(C(=O)NCCc1ccccc1)c1nc2ccccc2nc1N1CCOCC1` (configuration not stated) the inhibition was active: 64%. For `NS(=O)(=O)c1ccc(S(=O)(=O)NCCc2ccccc2)cc1`, the inhibition was inconclusive: 30.8%. For `O=C(c1csc2c1CCCC2)n1cccn1`, the inhibition was inconclusive: 34.5%. For `COc1cc(/C=N/NC(=O)c2cc3ccccc3cc2O)ccc1OCCN1CCCCC1`, the inhibition was inactive: -2.77%. In the case of `Cc1cc(C)c(S(=O)(=O)N2CCCC(C(=O)NCc3ccncc3)C2)c(C)c1` (configuration not stated), the inhibition is reported as inconclusive: 21.1%. For `Cc1cc(NC(=O)CSc2nnc(C)c(=O)[nH]2)no1`, the inhibition was active: 68.9%. With `O=C(NC(=O)c1ccc(Cl)cc1)OC1CCCCC1` the inhibition was inactive: 11.9%. With `Oc1ccc2ccccc2c1/C=N/Nc1nnc(-c2ncc[nH]2)c2ccccc12` the inhibition was active: 87%. For `Cc1nc(C)n(CC(=O)N2CCCC(C(=O)c3ccc(C(F)(F)F)cc3)C2)n1` (configuration not stated), the inhibition was active: 95.8%. In the case of `COc1cc(/C=C/C(=O)OCC(=O)Nc2ccc3c(c2)OCCO3)ccc1O`, the inhibition is reported as inconclusive: 46.4%. With `CN(C)c1ccc(C(O)Cc2nc3ccccc3n2C)cc1` (configuration not stated) the inhibition was active: 120%. In the case of `COCCCNC(=S)NCCc1ccc(F)cc1`, the inhibition is reported as inconclusive: 40.9%. With `Nc1ccc(S(=O)(=O)Nc2nccc(/C=C/c3ccc(Br)s3)n2)cc1` the inhibition was inconclusive: 32%. For `COc1ccc(-c2cc(-c3cccs3)c(C#N)c(SCC(=O)NCc3ccco3)n2)cc1`, the inhibition was active: 51.5%. In the case of `O=c1[nH]c2ccccc2nc1/C=C/c1ccc(O)cc1`, the inhibition is reported as inconclusive: 32.2%. In the case of `O=C(O)c1ccc(-c2nc(-c3cccc(C(F)(F)F)c3)cs2)cc1`, the inhibition is reported as active: 59.1%.
